No constants are given. Whether binding was seen depends on the method and setting. Some binding calls cover weakened binding; strength is not graded here.
Key:
Experiment in all cases: fluorescence polarisation; 100 nM 5-FAM labelled peptide, protein or complex titrated; 20 mM HEPES pH 8, 150 mM KCl, 2.5 mM MgCl, 5% glycerol, 1 mM DTT; room temperature, 15 min; both purified
[1] = target: T1, 5-FAM Lrs4(317-337) peptide (S. cerevisiae)
T1 sequence (peptide, 5-FAM on the N-terminus): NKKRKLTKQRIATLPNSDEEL

Sequences of proteins named here, by UniProt entry; tags and fusion partners are left off. A change or cut given only in a name is not applied to a line headed by its entry.
UniProt P38989: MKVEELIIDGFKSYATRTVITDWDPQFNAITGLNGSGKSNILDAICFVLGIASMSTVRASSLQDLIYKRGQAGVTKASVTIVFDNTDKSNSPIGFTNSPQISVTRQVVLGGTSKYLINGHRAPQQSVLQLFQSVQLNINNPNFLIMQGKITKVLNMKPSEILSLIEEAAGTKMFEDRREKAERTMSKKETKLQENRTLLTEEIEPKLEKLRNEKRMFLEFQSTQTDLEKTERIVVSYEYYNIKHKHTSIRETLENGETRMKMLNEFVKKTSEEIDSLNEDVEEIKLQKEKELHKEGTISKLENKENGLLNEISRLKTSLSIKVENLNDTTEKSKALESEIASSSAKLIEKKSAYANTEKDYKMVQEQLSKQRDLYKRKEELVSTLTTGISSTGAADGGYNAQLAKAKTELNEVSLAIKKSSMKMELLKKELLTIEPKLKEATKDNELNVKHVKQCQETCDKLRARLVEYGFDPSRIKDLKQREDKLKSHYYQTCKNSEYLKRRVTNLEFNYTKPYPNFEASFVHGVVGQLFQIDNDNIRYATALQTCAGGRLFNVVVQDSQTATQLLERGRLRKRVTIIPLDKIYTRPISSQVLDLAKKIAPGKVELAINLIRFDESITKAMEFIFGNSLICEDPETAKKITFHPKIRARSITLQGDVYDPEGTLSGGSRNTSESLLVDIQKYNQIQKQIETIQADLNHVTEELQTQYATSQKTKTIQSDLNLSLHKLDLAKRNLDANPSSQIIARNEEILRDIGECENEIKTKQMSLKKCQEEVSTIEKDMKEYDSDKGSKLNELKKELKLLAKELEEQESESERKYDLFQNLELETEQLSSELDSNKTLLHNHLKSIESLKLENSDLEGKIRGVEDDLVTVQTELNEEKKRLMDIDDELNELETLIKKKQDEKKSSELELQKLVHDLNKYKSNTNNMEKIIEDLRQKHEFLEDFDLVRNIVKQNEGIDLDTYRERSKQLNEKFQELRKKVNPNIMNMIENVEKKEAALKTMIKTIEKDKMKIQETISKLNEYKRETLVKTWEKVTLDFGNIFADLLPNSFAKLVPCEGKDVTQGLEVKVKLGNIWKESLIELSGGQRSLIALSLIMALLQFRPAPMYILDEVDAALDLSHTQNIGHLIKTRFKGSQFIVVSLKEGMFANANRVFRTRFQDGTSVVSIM

[2] = target: T2, 5-FAM Sgo1(503-523) peptide (S. cerevisiae)
T2 sequence (peptide, 5-FAM (label named; its end is not printed for this peptide)): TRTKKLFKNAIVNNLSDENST

[3] = target: T3, 5-FAM NCAPD2-C(1376-1398) peptide (human)
T3 sequence (peptide, 5-FAM on the N-terminus): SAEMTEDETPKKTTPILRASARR

[4] = target: T4, 5-FAM-KIF4A WT(1206-1228) peptide (human)
T4 sequence (peptide, 5-FAM on the N-terminus): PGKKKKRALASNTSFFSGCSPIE

Row | binding [1] | binding [2] | binding [3] | binding [4] | Substance
1 | no binding | no binding |  |  | yeast condensin tetramer lacking Ycg1 (from UniProt P38989 1-1170; Q12267 1-1418; P38170 1-754; Q06156 1-1176) (complex)
2 |  |  | binds weakly | binds weakly | human condensin I tetramer lacking NCAPG (from UniProt O95347 1-1197; Q9NTJ3 1-1288; Q15003 1-741; Q15021 1-1401) (complex)
